Reference: the supplement of paper PMC11006884
The entries are a selection whose mix differs from that of the whole data set.

Protein sequences, listed by entry. Tags and fused reporters are not part of them. Lines headed by an entry give the natural chain unless they say otherwise; changes in a name come on top.
UniProt Q8NFC6: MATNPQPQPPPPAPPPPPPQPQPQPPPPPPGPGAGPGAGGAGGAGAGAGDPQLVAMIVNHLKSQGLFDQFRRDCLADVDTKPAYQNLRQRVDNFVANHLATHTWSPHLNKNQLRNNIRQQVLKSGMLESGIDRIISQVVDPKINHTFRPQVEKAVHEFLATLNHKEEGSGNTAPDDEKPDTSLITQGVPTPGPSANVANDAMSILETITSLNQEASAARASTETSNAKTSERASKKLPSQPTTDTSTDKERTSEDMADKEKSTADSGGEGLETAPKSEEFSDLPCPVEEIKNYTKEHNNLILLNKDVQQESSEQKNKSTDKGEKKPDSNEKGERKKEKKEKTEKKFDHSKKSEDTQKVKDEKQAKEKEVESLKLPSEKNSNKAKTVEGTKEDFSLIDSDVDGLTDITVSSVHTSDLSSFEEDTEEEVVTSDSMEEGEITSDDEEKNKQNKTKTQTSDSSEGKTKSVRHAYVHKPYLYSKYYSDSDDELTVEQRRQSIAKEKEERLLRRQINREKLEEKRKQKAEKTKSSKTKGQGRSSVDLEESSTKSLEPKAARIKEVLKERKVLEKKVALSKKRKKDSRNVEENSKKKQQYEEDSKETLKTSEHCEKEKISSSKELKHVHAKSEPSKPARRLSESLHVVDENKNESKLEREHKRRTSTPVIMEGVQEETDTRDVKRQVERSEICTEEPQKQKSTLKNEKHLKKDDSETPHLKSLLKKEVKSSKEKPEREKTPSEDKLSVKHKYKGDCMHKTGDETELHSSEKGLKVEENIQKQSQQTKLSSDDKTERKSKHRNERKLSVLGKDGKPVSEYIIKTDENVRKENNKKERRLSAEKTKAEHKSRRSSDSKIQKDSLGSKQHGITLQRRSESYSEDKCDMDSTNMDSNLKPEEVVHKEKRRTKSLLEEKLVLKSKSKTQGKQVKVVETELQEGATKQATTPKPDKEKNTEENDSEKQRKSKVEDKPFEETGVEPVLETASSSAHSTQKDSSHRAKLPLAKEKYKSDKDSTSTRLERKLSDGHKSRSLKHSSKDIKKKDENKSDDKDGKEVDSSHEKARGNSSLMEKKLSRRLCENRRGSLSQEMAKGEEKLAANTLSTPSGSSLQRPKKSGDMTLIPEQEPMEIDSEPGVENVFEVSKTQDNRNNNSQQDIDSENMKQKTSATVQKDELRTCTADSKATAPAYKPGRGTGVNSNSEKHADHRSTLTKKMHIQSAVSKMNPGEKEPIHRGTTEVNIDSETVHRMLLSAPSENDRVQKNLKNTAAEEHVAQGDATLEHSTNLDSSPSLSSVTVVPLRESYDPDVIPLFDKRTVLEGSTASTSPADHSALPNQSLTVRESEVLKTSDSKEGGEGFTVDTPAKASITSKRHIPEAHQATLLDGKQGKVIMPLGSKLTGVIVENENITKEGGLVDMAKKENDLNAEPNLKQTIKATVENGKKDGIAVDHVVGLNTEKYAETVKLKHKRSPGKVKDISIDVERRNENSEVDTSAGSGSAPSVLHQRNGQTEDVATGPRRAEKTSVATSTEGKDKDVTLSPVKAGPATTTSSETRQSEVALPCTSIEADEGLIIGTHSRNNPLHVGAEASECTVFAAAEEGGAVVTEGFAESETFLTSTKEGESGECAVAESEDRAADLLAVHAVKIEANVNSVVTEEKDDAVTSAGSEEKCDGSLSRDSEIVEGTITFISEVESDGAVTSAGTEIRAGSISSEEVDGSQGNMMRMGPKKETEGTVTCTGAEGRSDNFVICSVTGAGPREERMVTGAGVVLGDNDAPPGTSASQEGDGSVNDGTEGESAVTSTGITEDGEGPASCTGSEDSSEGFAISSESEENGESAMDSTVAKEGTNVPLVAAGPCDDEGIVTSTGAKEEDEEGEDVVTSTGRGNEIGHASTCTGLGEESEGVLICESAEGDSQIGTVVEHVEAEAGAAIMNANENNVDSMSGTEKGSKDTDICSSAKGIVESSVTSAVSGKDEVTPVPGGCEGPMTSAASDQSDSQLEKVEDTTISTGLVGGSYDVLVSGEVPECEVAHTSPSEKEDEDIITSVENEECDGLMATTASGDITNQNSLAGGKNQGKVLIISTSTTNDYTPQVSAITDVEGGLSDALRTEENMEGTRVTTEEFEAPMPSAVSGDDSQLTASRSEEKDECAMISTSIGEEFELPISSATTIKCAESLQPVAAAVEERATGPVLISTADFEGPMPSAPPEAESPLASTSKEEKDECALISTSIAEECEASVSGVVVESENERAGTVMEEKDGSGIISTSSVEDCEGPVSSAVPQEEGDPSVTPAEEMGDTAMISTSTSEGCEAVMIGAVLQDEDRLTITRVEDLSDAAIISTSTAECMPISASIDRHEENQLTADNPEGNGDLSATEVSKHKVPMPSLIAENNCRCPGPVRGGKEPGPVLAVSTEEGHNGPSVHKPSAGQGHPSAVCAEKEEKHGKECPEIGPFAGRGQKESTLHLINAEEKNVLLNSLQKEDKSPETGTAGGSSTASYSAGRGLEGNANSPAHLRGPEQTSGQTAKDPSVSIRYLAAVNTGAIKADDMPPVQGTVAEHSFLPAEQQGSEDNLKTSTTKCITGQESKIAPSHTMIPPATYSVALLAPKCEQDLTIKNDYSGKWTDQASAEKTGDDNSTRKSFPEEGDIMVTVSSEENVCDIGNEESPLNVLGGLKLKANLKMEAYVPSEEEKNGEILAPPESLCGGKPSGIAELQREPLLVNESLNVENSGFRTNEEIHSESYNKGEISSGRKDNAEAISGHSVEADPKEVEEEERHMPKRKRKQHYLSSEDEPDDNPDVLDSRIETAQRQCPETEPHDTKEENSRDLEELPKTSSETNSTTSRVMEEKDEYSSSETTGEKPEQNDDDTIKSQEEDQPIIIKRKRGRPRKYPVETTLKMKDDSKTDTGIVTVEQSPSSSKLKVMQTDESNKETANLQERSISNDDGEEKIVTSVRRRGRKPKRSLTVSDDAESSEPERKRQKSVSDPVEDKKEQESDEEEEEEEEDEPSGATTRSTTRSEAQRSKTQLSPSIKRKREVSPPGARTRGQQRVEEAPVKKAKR
UniProt Q8WXK3: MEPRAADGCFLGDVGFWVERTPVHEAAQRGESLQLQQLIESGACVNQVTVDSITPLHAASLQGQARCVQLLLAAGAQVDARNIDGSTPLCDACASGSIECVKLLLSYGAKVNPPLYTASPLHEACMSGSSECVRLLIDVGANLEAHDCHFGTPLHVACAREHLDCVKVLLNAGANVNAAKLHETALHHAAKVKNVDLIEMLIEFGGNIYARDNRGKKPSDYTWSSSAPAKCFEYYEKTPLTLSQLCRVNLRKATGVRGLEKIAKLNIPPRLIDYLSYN
UniProt Q8N3R9: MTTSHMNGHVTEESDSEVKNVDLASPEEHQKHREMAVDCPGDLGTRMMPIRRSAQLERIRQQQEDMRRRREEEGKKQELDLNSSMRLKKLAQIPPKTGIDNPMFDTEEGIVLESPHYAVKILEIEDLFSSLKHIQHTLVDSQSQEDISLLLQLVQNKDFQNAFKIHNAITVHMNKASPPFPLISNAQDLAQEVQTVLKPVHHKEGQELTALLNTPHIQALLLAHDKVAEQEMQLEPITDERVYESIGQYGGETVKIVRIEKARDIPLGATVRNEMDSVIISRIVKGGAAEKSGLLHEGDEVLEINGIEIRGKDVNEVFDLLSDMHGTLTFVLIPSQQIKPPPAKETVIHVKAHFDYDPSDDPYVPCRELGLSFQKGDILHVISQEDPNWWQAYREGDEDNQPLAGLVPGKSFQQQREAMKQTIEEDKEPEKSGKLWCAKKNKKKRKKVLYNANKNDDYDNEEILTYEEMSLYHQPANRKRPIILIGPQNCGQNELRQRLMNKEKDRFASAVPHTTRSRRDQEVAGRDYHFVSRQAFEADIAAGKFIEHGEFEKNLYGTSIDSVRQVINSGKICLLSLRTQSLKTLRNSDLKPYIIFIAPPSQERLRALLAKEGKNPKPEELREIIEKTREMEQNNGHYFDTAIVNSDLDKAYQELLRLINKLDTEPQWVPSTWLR
UniProt Q8WY54: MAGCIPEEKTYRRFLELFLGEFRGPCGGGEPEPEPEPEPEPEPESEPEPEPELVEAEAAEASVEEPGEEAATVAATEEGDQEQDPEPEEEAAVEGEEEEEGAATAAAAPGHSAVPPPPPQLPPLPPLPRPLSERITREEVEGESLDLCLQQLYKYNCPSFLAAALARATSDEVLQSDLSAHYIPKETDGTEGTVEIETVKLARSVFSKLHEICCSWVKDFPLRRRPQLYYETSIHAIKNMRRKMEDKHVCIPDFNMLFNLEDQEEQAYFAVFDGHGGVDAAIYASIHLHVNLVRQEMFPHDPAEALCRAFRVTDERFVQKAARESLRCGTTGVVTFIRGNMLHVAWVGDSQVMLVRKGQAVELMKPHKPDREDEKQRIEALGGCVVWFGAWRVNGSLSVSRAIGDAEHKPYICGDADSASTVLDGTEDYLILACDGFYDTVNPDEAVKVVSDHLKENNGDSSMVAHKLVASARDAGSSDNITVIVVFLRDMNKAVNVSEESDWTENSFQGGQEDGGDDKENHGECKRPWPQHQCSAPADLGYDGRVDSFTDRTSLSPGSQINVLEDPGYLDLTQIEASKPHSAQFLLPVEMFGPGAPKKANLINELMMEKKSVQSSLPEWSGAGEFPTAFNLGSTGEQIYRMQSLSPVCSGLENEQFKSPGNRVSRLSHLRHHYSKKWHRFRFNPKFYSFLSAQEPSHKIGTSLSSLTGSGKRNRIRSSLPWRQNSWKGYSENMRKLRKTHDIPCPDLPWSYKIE
UniProt Q8WWZ3: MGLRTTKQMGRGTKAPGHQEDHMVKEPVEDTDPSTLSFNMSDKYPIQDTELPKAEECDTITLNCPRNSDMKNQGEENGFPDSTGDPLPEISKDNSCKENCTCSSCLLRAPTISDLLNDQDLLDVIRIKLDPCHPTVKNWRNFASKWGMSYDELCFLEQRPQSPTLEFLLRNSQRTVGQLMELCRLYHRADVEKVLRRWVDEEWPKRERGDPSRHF
UniProt Q8NC51: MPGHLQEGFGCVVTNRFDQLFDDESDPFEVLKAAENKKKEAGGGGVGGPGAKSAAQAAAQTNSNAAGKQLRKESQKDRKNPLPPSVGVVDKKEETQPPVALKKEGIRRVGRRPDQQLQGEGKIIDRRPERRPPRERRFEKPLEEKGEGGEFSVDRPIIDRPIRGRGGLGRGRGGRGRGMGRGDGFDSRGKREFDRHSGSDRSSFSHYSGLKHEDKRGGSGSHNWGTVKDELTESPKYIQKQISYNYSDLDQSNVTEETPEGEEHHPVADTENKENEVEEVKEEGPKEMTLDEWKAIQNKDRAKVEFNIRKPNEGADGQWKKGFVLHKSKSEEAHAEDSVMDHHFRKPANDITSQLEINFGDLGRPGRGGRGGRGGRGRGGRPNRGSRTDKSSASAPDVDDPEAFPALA
UniProt Q8WWH5: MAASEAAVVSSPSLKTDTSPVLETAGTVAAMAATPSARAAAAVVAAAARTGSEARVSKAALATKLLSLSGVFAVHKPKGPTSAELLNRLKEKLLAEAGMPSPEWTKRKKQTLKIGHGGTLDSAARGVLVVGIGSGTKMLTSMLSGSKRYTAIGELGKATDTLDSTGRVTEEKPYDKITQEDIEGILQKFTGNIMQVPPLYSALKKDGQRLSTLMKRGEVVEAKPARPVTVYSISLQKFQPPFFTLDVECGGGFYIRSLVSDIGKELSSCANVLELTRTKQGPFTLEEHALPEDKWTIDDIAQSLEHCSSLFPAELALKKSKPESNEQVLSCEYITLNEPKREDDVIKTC
UniProt Q8NC96: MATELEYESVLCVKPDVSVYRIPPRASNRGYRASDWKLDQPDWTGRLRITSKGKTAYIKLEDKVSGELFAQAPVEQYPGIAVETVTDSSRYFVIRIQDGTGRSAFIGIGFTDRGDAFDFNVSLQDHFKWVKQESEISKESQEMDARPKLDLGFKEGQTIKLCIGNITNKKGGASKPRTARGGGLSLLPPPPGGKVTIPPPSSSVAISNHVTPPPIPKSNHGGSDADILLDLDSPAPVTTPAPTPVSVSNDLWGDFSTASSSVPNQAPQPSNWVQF
UniProt Q8NFF5: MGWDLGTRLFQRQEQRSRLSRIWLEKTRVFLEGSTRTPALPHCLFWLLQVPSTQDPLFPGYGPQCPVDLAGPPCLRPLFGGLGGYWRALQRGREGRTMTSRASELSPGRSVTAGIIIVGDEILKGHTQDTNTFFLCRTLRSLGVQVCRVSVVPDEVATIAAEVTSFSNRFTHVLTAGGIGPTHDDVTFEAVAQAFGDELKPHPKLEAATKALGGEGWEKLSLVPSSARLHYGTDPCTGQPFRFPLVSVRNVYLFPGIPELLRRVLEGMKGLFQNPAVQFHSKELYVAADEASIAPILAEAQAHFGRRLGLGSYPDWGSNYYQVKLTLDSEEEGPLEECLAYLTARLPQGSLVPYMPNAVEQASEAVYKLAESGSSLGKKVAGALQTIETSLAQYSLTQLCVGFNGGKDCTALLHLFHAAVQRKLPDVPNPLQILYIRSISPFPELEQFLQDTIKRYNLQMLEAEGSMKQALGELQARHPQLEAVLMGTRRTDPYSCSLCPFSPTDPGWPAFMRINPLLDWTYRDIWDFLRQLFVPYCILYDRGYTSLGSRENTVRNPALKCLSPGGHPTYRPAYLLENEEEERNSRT

Compound: COC(=O)C#Cc1ccccc1 [methyl 3-phenylpropiolate]
Assay: log2 ratio of iodoacetamide-alkyne labeling of the cysteine site, DMSO over compound (competition); higher = stronger covalent engagement of the cysteine by the compound, active = 1 or more
Conditions: 500 µM; treatment time 1 h; system: HEK293T cell lysate
Summary of the method: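 Reporter intensities give each cysteine's log2 competition ratio as the mean of control channels over the mean of compound channels. The samples were HEK293T lysate (2 mg/mL) given vehicle or electrophile (500 µM, 1 h, ambient temperature), then iodoacetamide alkyne (1 h), followed by click coupling to sCIP-TMT reagents, pooling, trypsin digestion overnight at 37 °C, streptavidin enrichment, acid elution, Orbitrap Eclipse LC-MS/MS with FAIMS and FragPipe quantification. Duplicate channels and three replicates were run, and cysteines quantified in only one replicate were discarded.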

log2 ratio of iodoacetamide-alkyne labeling, inactive:
UniProt Q8NFC6_C1170 0.273
UniProt Q8WXK3_C9 0.0974
MPP5 C490 (UniProt Q8N3R9) 0.378
NPLOC4 C208 (UniProt Q8TAT6) -0.0596
RBM15B C128 (UniProt Q8NDT2) 0.668
DDX54 C389 (UniProt Q8TDD1) 0.101
UniProt Q8WVB3_C244 0.59
ZNF687 C91 (UniProt Q8N1G0) 0.734
PPP4R1 C645 (UniProt Q8TF05) 0.853
PPM1E C4 (UniProt Q8WY54) 0.248
SPATA5 C318 (UniProt Q8NB90) 0.288
EDARADD C154 (UniProt Q8WWZ3) -0.0663
UniProt Q8NB37_C179 0.12
EXOC6 C66 (UniProt Q8TAG9) 0.0219
SERBP1 C11 (UniProt Q8NC51) 0.221
TRUB1 C331 (UniProt Q8WWH5) 0.531
NEDD1 C541 (UniProt Q8NHV4) 0.0315
SHROOM3 C1951 (UniProt Q8TF72) 0.289
NECAP1 C162 (UniProt Q8NC96) 0.89
PPIL4 C426 (UniProt Q8WUA2) 0.487
EHBP1 C672 (UniProt Q8NDI1) 0.618

Quoted from the entries so far (2 entries):
log2 ratio of iodoacetamide-alkyne labeling, inactive:
PPM1E C4 (UniProt Q8WY54) 0.248
SPATA5 C318 (UniProt Q8NB90) 0.288

Next part:

log2 ratio of iodoacetamide-alkyne labeling, active:
FLAD1 C499 (UniProt Q8NFF5) 1.06
